Results deposited as PubChem BioAssay AID504791 (Drosophila RNAi Screening Center, 2011)
The screen tested about 23,000 reagents; this is a random part of those that have a named target and a result. Over the whole deposit, 199 (0.86%) are marked active. 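Plate-scaled ratios behind the calls are not deposited; printed light signals are raw; many rows marked increased or decreased are still called inactive.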 Reagents against one gene are numbered here. Not given: the direction of the score.

Assay: 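Factors in Argonaute-based small RNA production and activity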 (primary screen)
Cell system: Drosophila S2-derived reporter cells
Knock-down reagent: long dsRNA against Drosophila genes, about 150-250 ng dsRNA per well (siRNA assay); about 80-120 ng (miRNA assay)
Duration: about 5 days (siRNA assay); about 4 days (miRNA assay)
Treatment: copper sulfate induction of reporters: 25 µM (siRNA assay); 200 mM stated (miRNA assay), 1-2 days before reading
Detection: 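Per-well ratio of Renilla over firefly light, expressed relative to that plate's average ratio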
Hit rule: 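a well was a first-pass pick when its plate-scaled ratio rose above 1.5 (siRNA assay) or 1.6 (miRNA assay), or dropped below 0.6; a gene counted only if two separate dsRNAs agreed on retest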

What is on record for hog?
miRNA reporter change: reporter ratio lowered past the hit cutoff; stable assay Renilla, run 1 (luminescence): 5627; stable assay firefly, run 1 (luminescence): 4.09e5; activity call: inactive

What did the screen give for MTA1-like #1?
stable assay Renilla, run 1 (luminescence): 6035; stable assay firefly, run 1 (luminescence): 4.52e5; activity call: inactive

How did the screen score MTA1-like #2?
stable assay Renilla, run 1 (luminescence): 8379; stable assay firefly, run 1 (luminescence): 5.14e5; activity call: inactive

For yellow-h, what does the deposit list?
stable assay Renilla, run 1 (luminescence): 6935; stable assay firefly, run 1 (luminescence): 4.49e5; activity call: inactive

What did the screen give for CG4374?
stable assay Renilla, run 1 (luminescence): 6727; stable assay firefly, run 1 (luminescence): 3.07e5; activity call: inactive

What is on record for AANATL4?
stable assay Renilla, run 1 (luminescence): 6763; stable assay firefly, run 1 (luminescence): 2.68e5; activity call: inactive

For Naa30B, what does the deposit list?
stable assay Renilla, run 1 (luminescence): 6139; stable assay firefly, run 1 (luminescence): 3.62e5; activity call: inactive

What is on record for CG32694 #1?
stable assay Renilla, run 1 (luminescence): 4719; stable assay firefly, run 1 (luminescence): 4.03e5; activity call: inactive

What did the screen give for CG32694 #2?
stable assay Renilla, run 1 (luminescence): 6459; stable assay firefly, run 1 (luminescence): 4.82e5; activity call: inactive

For CG32694 #3, what does the deposit list?
stable assay Renilla, run 1 (luminescence): 5275; stable assay firefly, run 1 (luminescence): 5.84e5; activity call: inactive

Which result is listed for Vps13D #1?
stable assay Renilla, run 1 (luminescence): 5372; stable assay firefly, run 1 (luminescence): 4.70e5; activity call: inactive

How did the screen score Vps13D #2?
stable assay Renilla, run 1 (luminescence): 5371; stable assay firefly, run 1 (luminescence): 4.06e5; activity call: inactive

With sbm, how do the results read?
stable assay Renilla, run 1 (luminescence): 4288; stable assay firefly, run 1 (luminescence): 3.99e5; activity call: inactive

What is on record for CG3081?
stable assay Renilla, run 1 (luminescence): 5892; stable assay firefly, run 1 (luminescence): 3.17e5; activity call: inactive

For mRpS11, how do the results read?
stable assay Renilla, run 1 (luminescence): 6475; stable assay firefly, run 1 (luminescence): 4.57e5; activity call: inactive

How did the screen score tsl?
stable assay Renilla, run 1 (luminescence): 8327; stable assay firefly, run 1 (luminescence): 4.27e5; activity call: inactive

Which result is listed for CG15879?
stable assay Renilla, run 1 (luminescence): 6687; stable assay firefly, run 1 (luminescence): 3.27e5; activity call: inactive

What did the screen give for CG13314?
stable assay Renilla, run 1 (luminescence): 5895; stable assay firefly, run 1 (luminescence): 3.77e5; activity call: inactive

Which result is listed for CG6454?
stable assay Renilla, run 1 (luminescence): 9429; stable assay firefly, run 1 (luminescence): 3.49e5; activity call: inactive

What is on record for ATPsynGL?
stable assay Renilla, run 1 (luminescence): 7235; stable assay firefly, run 1 (luminescence): 4.05e5; activity call: inactive

With CG3280 (retired record), how do the results read?
stable assay Renilla, run 1 (luminescence): 5404; stable assay firefly, run 1 (luminescence): 3.43e5; activity call: inactive

With Lipt1 #1, what does the deposit list?
stable assay Renilla, run 1 (luminescence): 5546; stable assay firefly, run 1 (luminescence): 4.03e5; activity call: inactive

Which result is listed for Lipt1 #2?
stable assay Renilla, run 1 (luminescence): 8229; stable assay firefly, run 1 (luminescence): 3.06e5; activity call: inactive

What is on record for LpR2 #1?
stable assay Renilla, run 1 (luminescence): 5584; stable assay firefly, run 1 (luminescence): 4.37e5; activity call: inactive

What did the screen give for LpR2 #2?
stable assay Renilla, run 1 (luminescence): 6244; stable assay firefly, run 1 (luminescence): 3.92e5; activity call: inactive

How did the screen score LpR2 #3?
stable assay Renilla, run 1 (luminescence): 7942; stable assay firefly, run 1 (luminescence): 4.21e5; activity call: inactive

With LpR2 #4, how do the results read?
stable assay Renilla, run 1 (luminescence): 6887; stable assay firefly, run 1 (luminescence): 3.29e5; activity call: inactive

What is on record for CG2747?
stable assay Renilla, run 1 (luminescence): 7087; stable assay firefly, run 1 (luminescence): 4.39e5; activity call: inactive

As entered above:
Vps13D #1, stable assay Renilla, run 1 (luminescence) → 5372
For “stable assay Renilla, run 1 (luminescence)”, LpR2 #2 shows 6244
